Literature values as cited in patent publication US8097646B2, “Ophthalmic preparation containing menthyl ester of indomethacin” (AlphaRx, Inc., priority 2005, dated 2012).

Conditions: cited from earlier work

In the case of COc1ccc2c(c1)c(CC(=O)O)c(C)n2C(=O)c1ccc(Cl)cc1 [Indomethacin, 1-(4-Chlorobenzoyl)-5-Methoxy-2-methyl-1H-indole-3-acetic acid], the “Solubility in water (background statement)” value is listed as “practically insoluble”.
